Reference: publication PMC11418123, “Structure of a truncated human GlcNAc-1-phosphotransferase variant reveals the basis for its hyperactivity” (The Journal of Biological Chemistry, 2024)
These are yes or no findings as the source states them, for the method shown. Some entries that bind do so weakly or less than the wild type.

Sequences of proteins named here, by UniProt entry; tags and fusion partners are left off. Residues count along the entry.
UniProt Q3T906, residues 44-1209: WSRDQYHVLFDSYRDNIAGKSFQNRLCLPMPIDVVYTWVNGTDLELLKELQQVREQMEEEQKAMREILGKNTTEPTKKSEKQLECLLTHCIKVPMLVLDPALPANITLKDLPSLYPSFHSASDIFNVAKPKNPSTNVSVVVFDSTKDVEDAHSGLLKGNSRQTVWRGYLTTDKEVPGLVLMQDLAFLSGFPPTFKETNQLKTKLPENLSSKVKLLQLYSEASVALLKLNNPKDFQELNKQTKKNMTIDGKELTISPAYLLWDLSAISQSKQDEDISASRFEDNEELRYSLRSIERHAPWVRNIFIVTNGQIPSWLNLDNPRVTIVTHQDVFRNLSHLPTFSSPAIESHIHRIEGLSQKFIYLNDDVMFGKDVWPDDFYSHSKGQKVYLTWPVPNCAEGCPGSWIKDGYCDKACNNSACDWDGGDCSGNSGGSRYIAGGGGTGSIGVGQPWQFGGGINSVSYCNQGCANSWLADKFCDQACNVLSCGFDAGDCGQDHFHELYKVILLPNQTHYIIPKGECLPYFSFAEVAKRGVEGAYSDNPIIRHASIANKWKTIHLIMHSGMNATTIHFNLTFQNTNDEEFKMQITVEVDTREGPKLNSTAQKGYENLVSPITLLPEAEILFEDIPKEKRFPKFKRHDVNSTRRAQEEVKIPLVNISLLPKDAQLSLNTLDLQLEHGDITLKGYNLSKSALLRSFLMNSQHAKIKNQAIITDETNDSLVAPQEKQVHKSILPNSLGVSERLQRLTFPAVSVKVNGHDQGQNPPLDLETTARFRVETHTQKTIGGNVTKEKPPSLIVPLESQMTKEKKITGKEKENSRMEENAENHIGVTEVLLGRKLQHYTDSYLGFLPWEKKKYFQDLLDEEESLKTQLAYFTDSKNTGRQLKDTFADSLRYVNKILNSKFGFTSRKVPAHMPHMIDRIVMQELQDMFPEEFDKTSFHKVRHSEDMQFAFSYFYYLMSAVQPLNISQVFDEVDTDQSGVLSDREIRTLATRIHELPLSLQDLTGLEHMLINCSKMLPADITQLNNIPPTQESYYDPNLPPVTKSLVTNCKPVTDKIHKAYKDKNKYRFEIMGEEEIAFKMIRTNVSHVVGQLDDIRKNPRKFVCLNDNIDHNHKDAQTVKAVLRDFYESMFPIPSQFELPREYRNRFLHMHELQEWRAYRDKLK

Target: soluble full-length human GlcNAc-1-phosphotransferase αβ (hPTase-αβ) (human) (UniProt Q3T906)
Assay: cryo-EM structure; single-particle cryo-EM of hPTase at 0.1 mg/ml incubated with 10 mM UDP-GlcNAc and 10 mM MnCl2 for 6 h at 4 °C; 2.9 Å; both purified

Question: “soluble full-length human GlcNAc-1-phosphotransferase αβ (hPTase-αβ) (from UniProt Q3T906 44-1209) (enzyme)” was tested. Which binding did it give?
Answer: binds
